Test results: PMC7819943, “Rice protein-binding microarrays: a tool to detect cis-acting elements near promoter regions in rice”
The other results are listed elsewhere or left out.

By UniProt entry, the sequences of proteins in these tests, tags left out.
UniProt Q0JBA9, entry or part of it: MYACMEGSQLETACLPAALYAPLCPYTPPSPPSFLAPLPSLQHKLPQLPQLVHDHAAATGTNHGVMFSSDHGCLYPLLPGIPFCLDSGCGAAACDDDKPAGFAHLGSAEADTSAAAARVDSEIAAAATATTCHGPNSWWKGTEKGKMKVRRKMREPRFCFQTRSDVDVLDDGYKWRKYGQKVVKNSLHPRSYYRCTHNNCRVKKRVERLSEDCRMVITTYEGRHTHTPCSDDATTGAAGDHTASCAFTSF

Each sequence was assayed against OsWRKY34 (Oryza sativa, UniProt Q0JBA9 1-250) (assay: protein-binding microarray (RPBM); PBS, 2% BSA, 51.3 ng/ul salmon testes DNA, 50 uM zinc acetate, 200 nM TF, 25 C, 1 h; high values mean tight binding). Details: protein: recombinant; tags: N-terminal polyhistidine and DsRed monomer fusion (pET32a); label: CyDye5-dUTP incorporated in the synthesized complementary strand; 3' TTTTT single-stranded linker to array surface; dsDNA, one strand shown.
Summary of the method: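 Transcription factors, each fused N-terminally to a polyhistidine tag and DsRed, were expressed in E. coli BL21-CodonPlus and purified on Ni–NTA. A custom Agilent array was made double-stranded by primer extension with Cy5-dUTP and blocked with 2% BSA. It was incubated with 200 nM protein in PBS, 2% BSA, salmon testes DNA and 50 µM zinc acetate at 25 °C for 1 h, then washed. The binding signal is per-feature fluorescence intensity (arbitrary units) read on an Axon 4000B scanner.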
With “ATTTTTCATTTATAAATATGTCGTTTCGCTTATTCTACAACGGAGTCACCTAGTGCAG” the binding signal was 8710 fluorescence intensity (a.u.).
With “TCAGCCGTCGTAAACTCACCAAACAGAACCCTTATCTCTTCGGAGTCACCTAGTGCAG” the binding signal was 9560 fluorescence intensity (a.u.).
In the case of “GCGTTGTGAGTGTTTGCGTTGTACTGTGTAATTTAAAAAACGGAGTCACCTAGTGCAG”, the binding signal is reported as 8460 fluorescence intensity (a.u.).
In the case of “TCGTCGCCCACTGCCACCGCTGACGTCACCGCACTCTCGCCGGAGTCACCTAGTGCAG”, the binding signal is reported as 9280 fluorescence intensity (a.u.).
With “CGGCCACCGTTTCTTTTTTTTTTCTTCTTTGCGTCGTCATCGGAGTCACCTAGTGCAG” the binding signal was 10200 fluorescence intensity (a.u.).
In the case of “CTATCTGGTGATTTTTAGTCTTACATGGTAACCGATTGACCGGAGTCACCTAGTGCAG”, the binding signal is reported as 8590 fluorescence intensity (a.u.).
“GGCGGCGGCGGGGTGGCCTTGGCCGGGTGCCTTGGTGGATCGGAGTCACCTAGTGCAG” was tested, and the binding signal was 10300 fluorescence intensity (a.u.).
With “ATCTACCGCCGCCCACAACTCTCTGCCGCCGCCGTCGTCTCGGAGTCACCTAGTGCAG” the binding signal was 13100 fluorescence intensity (a.u.).
“GTGATATTCATGTGATGGTGGTGTGTTTTGATCTTCCTCTCGGAGTCACCTAGTGCAG” was tested, and the binding signal was 8540 fluorescence intensity (a.u.).
With “GTATCATTTTCATAAAACCCTTTCAATGTTTATGAATTTACGGAGTCACCTAGTGCAG” the binding signal was 8680 fluorescence intensity (a.u.).
With “ATTGTTTGATGTGTGGGATATGTGATGGACTTTTGGCATTCGGAGTCACCTAGTGCAG” the binding signal was 8100 fluorescence intensity (a.u.).
In the case of “AAACTTAGCAAGAGCTCTGACCTATTGGAAAATTTTCTTTCGGAGTCACCTAGTGCAG”, the binding signal is reported as 9480 fluorescence intensity (a.u.).
With “GTTGGGTGGGTTTCCCGTCTCCTTCCGATTGCTGAGTAGCCGGAGTCACCTAGTGCAG” the binding signal was 19100 fluorescence intensity (a.u.).
With “ATTTGTGGGAGCTTGTTTTAGCTTCTGCTAGAAGCTGTCCCGGAGTCACCTAGTGCAG” the binding signal was 8060 fluorescence intensity (a.u.).
In the case of “ATGGTTGGTTTCGTGCTCTGTTTTTTTTTGGGAGAATTCGCGGAGTCACCTAGTGCAG”, the binding signal is reported as 12800 fluorescence intensity (a.u.).
“TCAAGTATGGCCCTTATCCGGTGGTACTTTTGTCATTTTTCGGAGTCACCTAGTGCAG” was tested, and the binding signal was 11900 fluorescence intensity (a.u.).
For “CACAATGCTATGGCTGCAACCGCTCAATTCGCCGCTCATCCGGAGTCACCTAGTGCAG”, the binding signal was 10200 fluorescence intensity (a.u.).
In the case of “CCACTCTGCACCGAACTGGGGATCCTCTCTGCTGCATTGTCGGAGTCACCTAGTGCAG”, the binding signal is reported as 8710 fluorescence intensity (a.u.).
With “CCTCCACTTCGCCAACTATCGCACCTCATCACTTCGCCATCGGAGTCACCTAGTGCAG” the binding signal was 15100 fluorescence intensity (a.u.).
“TTATTTCTTGTGCTAGTCTTGCGTTGGCTGATGCTGGAATCGGAGTCACCTAGTGCAG” was tested, and the binding signal was 8270 fluorescence intensity (a.u.).
With “GGCTCAACAAATAATGTGAAGATCTCTCATTTTCATTTTCCGGAGTCACCTAGTGCAG” the binding signal was 8050 fluorescence intensity (a.u.).
“TCATTTAATTAGATCTTCATTTCCATCCAGCGTACTTAAACGGAGTCACCTAGTGCAG” was tested, and the binding signal was 9140 fluorescence intensity (a.u.).
“AACATGTATGAACATAGTTTGACTTAGTTGTCTGGTTTTTCGGAGTCACCTAGTGCAG” was tested, and the binding signal was 8470 fluorescence intensity (a.u.).
With “TTCATATCCTGTTTCTATAATCGATTTCCCTCCAAATCCACGGAGTCACCTAGTGCAG” the binding signal was 11000 fluorescence intensity (a.u.).
For “TTACTTGCATTGTCAGTTTCCATTTGGTGTTAACATGACTCGGAGTCACCTAGTGCAG”, the binding signal was 8860 fluorescence intensity (a.u.).
In the case of “TACACGCTCATGTACTTCATCACCGAGGCCGCGTTCAACACGGAGTCACCTAGTGCAG”, the binding signal is reported as 11100 fluorescence intensity (a.u.).
In the case of “CTAAAACCGGATCAATTGACATCCCTCGACGGTTTACATTCGGAGTCACCTAGTGCAG”, the binding signal is reported as 8390 fluorescence intensity (a.u.).
“TCTTCCTCTCGCTGCTGCTTACGATTCCTCTTCTTCTTCTCGGAGTCACCTAGTGCAG” was tested, and the binding signal was 8660 fluorescence intensity (a.u.).
With “AGCACTGCCCACACTGCCAAAATATGCCATATGTTATCCTCGGAGTCACCTAGTGCAG” the binding signal was 8470 fluorescence intensity (a.u.).
For “TCCTTCCTCGCGGCCGTCGCCACCTTCTTCGGCCCCGCCGCGGAGTCACCTAGTGCAG”, the binding signal was 8190 fluorescence intensity (a.u.).
“TCTCTCCGCGCTCCGTGTCCGACCTTCTTCAGACTTCACACGGAGTCACCTAGTGCAG” was tested, and the binding signal was 10700 fluorescence intensity (a.u.).
For “AATCATCCTTCTTTTGTATTTATTCTCGATCCATTTATCTCGGAGTCACCTAGTGCAG”, the binding signal was 9020 fluorescence intensity (a.u.).
For “AACTCGCCCAATCTTCAGGTGCGGCTGCTCGCGTTCATCACGGAGTCACCTAGTGCAG”, the binding signal was 8110 fluorescence intensity (a.u.).
For “CTTTTTAATCAACGTTTGACCATTCGTCTTATTCAATTTTCGGAGTCACCTAGTGCAG”, the binding signal was 10900 fluorescence intensity (a.u.).
With “GAGTTGTGTGTAGCCGCCACAGTAGTCTTTTGTCTCTTCTCGGAGTCACCTAGTGCAG” the binding signal was 9860 fluorescence intensity (a.u.).
With “GGGGTGTTTCCTCGGGTCTTAGAGGGATGGCCGTGGGCGGCGGAGTCACCTAGTGCAG” the binding signal was 10600 fluorescence intensity (a.u.).
“TAATCTCTTGATGATTTGCTGTAACTACATTCCCTTGATACGGAGTCACCTAGTGCAG” was tested, and the binding signal was 8460 fluorescence intensity (a.u.).
For “TATTCTTGCCTTTTTCTTATGCTCAATTTAAACAGTCATTCGGAGTCACCTAGTGCAG”, the binding signal was 9490 fluorescence intensity (a.u.).
In the case of “CTCACTCCGATGCACCTGCCCTCGCCGACTCGCCGTTAAACGGAGTCACCTAGTGCAG”, the binding signal is reported as 8210 fluorescence intensity (a.u.).
For “TCTGTTGATCACCCAATCTAGTCTAAAATTGGTATTGCATCGGAGTCACCTAGTGCAG”, the binding signal was 9560 fluorescence intensity (a.u.).
For “TTAGGATTGCTTATATTTTGGGACGGAGGGAGGGAGTAATCGGAGTCACCTAGTGCAG”, the binding signal was 9090 fluorescence intensity (a.u.).
“TTTTGTCCGTTTGAGTTTATTTTTTATATGTTTGGTTCTTCGGAGTCACCTAGTGCAG” was tested, and the binding signal was 13000 fluorescence intensity (a.u.).
